## Assay results

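Plate-reader measure of the Venus reporter marking one vaccinia stage in infected cells (the cell line is not named here); read time unknown. The test concentration is not given here. Percent change in Venus reporter signal; lower (more negative) values mean stronger inhibition of that viral stage.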

Values are in %. The controls that fix the scale are not given here. Common to all entries: measured here: Venus reporter, other viral stage. This is a side read-out of the assay, for part of the compounds, not drawn at random.

O=C(C[C@H]1C=C[C@@H](NC(=O)Nc2ccc(C(F)(F)F)cc2)[C@@H](CO)O1)NCc1cc(F)cc(F)c1 read activity change (Venus) -30.81%. Result for C[C@@H]1CN([C@@H](C)CO)C(=O)c2cc(NC(=O)Nc3ccccc3)ccc2O[C@@H](C)CCCCO[C@H]1CN(C)Cc1ccccc1 was activity change (Venus) -43.27%. COc1ccc(NC(=O)Nc2ccc3c(c2)CC(=O)N([C@H](C)CO)C[C@H](C)[C@H](CN(C)S(=O)(=O)c2ccc(Cl)cc2)O3)cc1 read activity change (Venus) -27.8%. Result for O=C(C[C@H]1CC[C@H]2[C@@H](COC[C@H](O)CN2Cc2ccc(Oc3ccccc3)cc2)O1)Nc1nccs1 was activity change (Venus) -39.92%. Cn1cnc(S(=O)(=O)N2CCCCN3[C@H](C2)[C@H](c2ccc(-c4ccc(F)cc4)cc2)[C@@H]3CO)c1 gave activity change (Venus) -59.33%. Result for CO[C@H]1CN(C)C(=O)c2cc(NC(=O)C3CC3)ccc2OC[C@H](C)N(Cc2cc(F)ccc2F)C[C@H]1C was activity change (Venus) -25.62%. With O=C(C[C@H]1CC[C@H]2[C@@H](COC[C@@H](O)CN2S(=O)(=O)c2ccccc2Cl)O1)N1CCC(Cc2ccccc2)CC1 the assay gave activity change (Venus) -30.98%.

C[C@@H]1CN([C@@H](C)CO)C(=O)Cc2cc(NC(=O)C3CC3)ccc2O[C@H]1CN(C)Cc1ccc(-c2ccccc2)cc1 gave activity change (Venus) -84.01%. C[C@@H]1CN([C@H](C)CO)C(=O)c2cc(NC(=O)c3ccncc3)ccc2O[C@@H](C)CCCCO[C@@H]1CN(C)Cc1ccc(C(F)(F)F)cc1 read activity change (Venus) -53.62%. Result for C[C@@H]1CCCCO[C@@H](CN(C)C(=O)C2CCCCC2)[C@@H](C)CN([C@H](C)CO)C(=O)c2cc(NS(C)(=O)=O)ccc2O1 was activity change (Venus) -32.51%. O=C(C[C@H]1CC[C@@H]2[C@H](COC[C@@H](O)CN2Cc2ccc(Oc3ccccc3)cc2)O1)N1CCc2ccccc2C1 gave activity change (Venus) -41.25%. For Cc1ccc(-c2ccc3c(c2)O[C@H](CN(C)Cc2ccccn2)[C@@H](C)CN([C@@H](C)CO)S3(=O)=O)cc1 the result was activity change (Venus) -45.58%. C[C@H](CO)N1C[C@H](C)[C@H](CN(C)S(=O)(=O)c2cccs2)OCCCC[C@H](C)Oc2ccc(NS(=O)(=O)c3ccc(Cl)cc3)cc2C1=O read activity change (Venus) -35.94%. With C[C@@H]1CN([C@@H](C)CO)C(=O)c2cc(C#CC3CCCC3)cnc2O[C@H]1CN(C)S(=O)(=O)c1cccc(F)c1 the assay gave activity change (Venus) -29.48%.

COc1ccccc1-c1cccc(-c2nc(C(=O)NCc3ccncc3)cc3c2[C@@H](CCO)N([S@](=O)C(C)(C)C)C3)c1 gave activity change (Venus) -25.69%. For COc1ccccc1NC(=O)N1CCCCN2[C@H](CO)[C@H](c3ccc(-c4ccccc4)cc3)[C@H]2C1 the result was activity change (Venus) -63.05%. CN1c2ccc(-c3ccccc3)cc2[C@H]2[C@H](CCN2C(=O)c2ccc(F)cc2)[C@H]1CO gave activity change (Venus) -32.41%. Result for C[C@@H]1CN([C@H](C)CO)S(=O)(=O)c2ccc(C#Cc3ccc(F)cc3)cc2O[C@H]1CN(C)C(=O)c1ccccn1 was activity change (Venus) -35.58%. COc1ccc(S(=O)(=O)N(C)C[C@H]2OCCCC[C@@H](C)Oc3ccc(NS(=O)(=O)c4c(C)noc4C)cc3C(=O)N([C@@H](C)CO)C[C@@H]2C)cc1 read activity change (Venus) -24.41%. Result for C[C@@H]1CN([C@@H](C)CO)S(=O)(=O)c2ccc(-c3cccc(C#N)c3)cc2O[C@@H]1CN(C)C(=O)Nc1ccccc1F was activity change (Venus) -37.41%. Result for CCCN(C)C[C@@H]1OCCCC[C@H](C)Oc2ccc(NC(=O)Cc3ccccc3)cc2C(=O)N([C@H](C)CO)C[C@@H]1C was activity change (Venus) -32.36%.

C[C@@H]1CN([C@H](C)CO)C(=O)c2cc(NS(=O)(=O)c3cccs3)ccc2O[C@@H](C)CCCCO[C@H]1CN(C)Cc1ccc(C(F)(F)F)cc1 read activity change (Venus) -73.54%. CCCN(C)C[C@H]1OCCCC[C@@H](C)Oc2ccc(NC(=O)Nc3ccccc3)cc2C(=O)N([C@@H](C)CO)C[C@H]1C read activity change (Venus) -28.97%. C[C@@H]1CN([C@H](C)CO)C(=O)c2cccc(NC(=O)NC3CCCCC3)c2O[C@H]1CN(C)CC1CCCCC1 gave activity change (Venus) -34.62%. With COc1ccc2c3c(n(C)c2c1)[C@H](CO)N(Cc1ccc(Cl)cc1)CC31CCN(CC2CC2)CC1 the assay gave activity change (Venus) -49.91%. C/C=C/c1ccc([C@@H]2[C@@H](CO)N3C(=O)CN(S(=O)(=O)c4ccccc4)C[C@@H]23)cc1 read activity change (Venus) -32.7%. Result for C[C@@H]1CN([C@H](C)CO)C(=O)c2c(c3ccccc3n2C)-c2ccccc2CO[C@H]1CN(C)S(=O)(=O)c1ccccc1 was activity change (Venus) -33.13%. With COc1ccccc1-c1ccc2c(c1)[C@H]1[C@H](CCN1C(=O)C1CCCC1)[C@H](CO)N2 the assay gave activity change (Venus) -41.34%.

C[C@@H]1CCCCO[C@H](CN(C)Cc2ccc3c(c2)OCO3)[C@H](C)CN([C@@H](C)CO)C(=O)c2cc(NC(=O)Nc3ccccc3)ccc2O1 gave activity change (Venus) -62.11%. O=S(=O)(c1ccc(F)cc1)N1CCCCN2[C@H](C1)[C@H](c1ccc(-c3ccccc3)cc1)[C@@H]2CO gave activity change (Venus) -37.01%. For C[C@@H]1CCCCO[C@@H](CN(C)S(=O)(=O)c2ccccc2)[C@H](C)CN([C@@H](C)CO)C(=O)c2cc(NC(=O)Cc3ccccc3)ccc2O1 the result was activity change (Venus) -47.36%. Result for C[C@@H]1CN([C@H](C)CO)C(=O)c2cccc(NC(=O)Nc3ccccc3)c2O[C@@H]1CN(C)Cc1ccc(Cl)c(Cl)c1 was activity change (Venus) -32.01%.

The last 4 entries again:

C[C@@H]1CCCCO[C@H](CN(C)Cc2ccc3c(c2)OCO3)[C@H](C)CN([C@@H](C)CO)C(=O)c2cc(NC(=O)Nc3ccccc3)ccc2O1 gave activity change (Venus) -62.11%.
O=S(=O)(c1ccc(F)cc1)N1CCCCN2[C@H](C1)[C@H](c1ccc(-c3ccccc3)cc1)[C@@H]2CO gave activity change (Venus) -37.01%.
C[C@@H]1CCCCO[C@@H](CN(C)S(=O)(=O)c2ccccc2)[C@H](C)CN([C@@H](C)CO)C(=O)c2cc(NC(=O)Cc3ccccc3)ccc2O1 gave activity change (Venus) -47.36%.
C[C@@H]1CN([C@H](C)CO)C(=O)c2cccc(NC(=O)Nc3ccccc3)c2O[C@@H]1CN(C)Cc1ccc(Cl)c(Cl)c1 gave activity change (Venus) -32.01%.

From PubChem BioAssay record AID1053133 (Broad Institute, 2014).